Values of other authors in patent US6605644B2, “Analgesic regimen” (Ortho-McNeil Pharmaceutical, Inc., priority 1999, dated 2003).
Structures can show the parent of a compound that is named as a salt.

Tested on: reuptake of norepinephrine
Details: in vitro; cited from earlier work

COc1cccc(C2(O)CCCCC2CN(C)C)c1 (stereo not shown) [tramadol hydrochloride, 2-[(dimethylamino)methyl]-1-(3-methoxyphenyl)cyclohexanol]
inhibition of the reuptake of norepinephrine: weak inhibition
